The list shows a part of the results.
Tests used:
Assay in all cases: glycan array binding signal (z-score within array); higher = stronger binding
Settings in all cases: glycan notation: IUPAC condensed, linker removed
[1] = biological target: Gal(a1-6)Glc
Outline: (§1)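 Glycan array data were curated from 3228 arrays in the Consortium for Functional Glycomics database and kept only where the protein sequence was available. Glycan names were converted to IUPAC-condensed notation, and columns mapping to the same glycan were averaged. The binding signal is a within-array Z-score, averaged across arrays of the same protein sequence at different concentrations or buffers and across linkers. Negative Z-scores can be read as non-binding.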

[2] = biological target: Gal(b1-2)Gal
Outline: as §1

[3] = biological target: Gal(b1-3)Gal
Outline: as §1

[4] = biological target: Gal(b1-3)Gal(b1-4)GlcNAc
Outline: as §1

[5] = biological target: Gal(b1-3)GalNAc
Outline: as §1

[6] = biological target: Gal(b1-3)GalNAc(a1-3)[Fuc(a1-2)]Gal(b1-4)Glc
Outline: as §1

[7] = biological target: Gal(b1-3)GalNAc(a1-3)[Fuc(a1-2)]Gal(b1-4)GlcNAc
Outline: as §1

[8] = biological target: Gal(b1-3)GalNAc(b1-3)Gal
Outline: as §1

[9] = biological target: Gal(b1-3)GalNAc(b1-3)Gal(a1-4)Gal(b1-4)Glc
Outline: as §1

[10] = biological target: Gal(b1-3)GalNAc(b1-4)Gal(b1-4)Glc
Outline: as §1

[11] = biological target: Gal(b1-3)GalNAc(b1-4)[Neu5Ac(a2-3)]Gal(b1-4)Glc
Outline: as §1

[12] = biological target: Gal(b1-3)GlcNAc
Outline: as §1

[13] = biological target: Gal(b1-3)GlcNAc(a1-3)Gal(b1-4)GlcNAc
Outline: as §1

[14] = biological target: Gal(b1-3)GlcNAc(a1-6)Gal(b1-4)GlcNAc
Outline: as §1

[15] = biological target: Gal(b1-3)GlcNAc(b1-2)Man
Outline: as §1

[16] = biological target: Gal(b1-3)GlcNAc(b1-2)Man(a1-3)[Gal(b1-3)GlcNAc(b1-2)Man(a1-6)]Man(b1-4)GlcNAc(b1-4)GlcNAc
Outline: as §1

[17] = biological target: Gal(b1-3)GlcNAc(b1-2)Man(a1-3)[Gal(b1-3)GlcNAc(b1-2)Man(a1-6)]Man(b1-4)GlcNAc(b1-4)[Fuc(a1-6)]GlcNAc
Outline: as §1

[18] = biological target: Gal(b1-3)GlcNAc(b1-2)Man(a1-3)[GlcNAc(b1-4)][Gal(b1-3)GlcNAc(b1-2)Man(a1-6)]Man(b1-4)GlcNAc(b1-4)GlcNAc
Outline: as §1

[19] = biological target: Gal(b1-3)GlcNAc(b1-2)[Gal(b1-3)GlcNAc(b1-6)]Man(a1-6)[Gal(b1-3)GlcNAc(b1-2)Man(a1-3)]Man(b1-4)GlcNAc(b1-4)GlcNAc
Outline: as §1

[20] = biological target: Gal(b1-3)GlcNAc(b1-3)Gal(b1-3)GlcNAc
Outline: as §1

[21] = biological target: Gal(b1-3)GlcNAc(b1-3)Gal(b1-4)Glc
Outline: as §1

[22] = biological target: Gal(b1-3)GlcNAc(b1-3)Gal(b1-4)GlcNAc
Outline: as §1

[23] = biological target: Gal(b1-3)GlcNAc(b1-3)Gal(b1-4)GlcNAc(b1-2)Man(a1-3)[Gal(b1-3)GlcNAc(b1-3)Gal(b1-4)GlcNAc(b1-2)Man(a1-6)]Man(b1-4)GlcNAc(b1-4)GlcNAc
Outline: as §1

[24] = biological target: Gal(b1-3)GlcNAc(b1-3)Gal(b1-4)GlcNAc(b1-2)[Gal(b1-3)GlcNAc(b1-3)Gal(b1-4)GlcNAc(b1-6)]Man(a1-6)[Gal(b1-3)GlcNAc(b1-3)Gal(b1-4)GlcNAc(b1-2)Man(a1-3)]Man(b1-4)GlcNAc(b1-4)[Fuc(a1-6)]GlcNAc
Outline: as §1

[25] = biological target: Gal(b1-3)GlcNAc(b1-3)Gal(b1-4)GlcNAc(b1-3)Gal(b1-4)GlcNAc(b1-2)[Gal(b1-3)GlcNAc(b1-3)Gal(b1-4)GlcNAc(b1-3)Gal(b1-4)GlcNAc(b1-6)]Man(a1-6)[Gal(b1-3)GlcNAc(b1-3)Gal(b1-4)GlcNAc(b1-3)Gal(b1-4)GlcNAc(b1-2)Man(a1-3)]Man(b1-4)GlcNAc(b1-4)[Fuc(a1-6)]GlcNAc
Outline: as §1

[26] = biological target: Gal(b1-3)GlcNAc(b1-3)Gal(b1-4)GlcNAc(b1-6)[Gal(b1-3)GlcNAc(b1-3)]Gal(b1-4)Glc
Outline: as §1

[27] = biological target: Gal(b1-3)GlcNAc(b1-3)Gal(b1-4)[Fuc(a1-3)]GlcNAc
Outline: as §1

[28] = biological target: Gal(b1-3)GlcNAc(b1-3)Gal(b1-4)[Fuc(a1-3)]GlcNAc(b1-6)[Gal(b1-3)GlcNAc(b1-3)]Gal(b1-4)Glc
Outline: as §1

[29] = biological target: Gal(b1-3)GlcNAc(b1-3)GalNAc
Outline: as §1

[30] = biological target: Gal(b1-3)GlcNAc(b1-6)Gal(b1-4)GlcNAc
Outline: as §1

[31] = biological target: Gal(b1-3)GlcNAc(b1-6)GalNAc
Outline: as §1

[32] = biological target: Gal(b1-3)GlcNAc(b1-6)[Gal(b1-3)]GalNAc
Outline: as §1

[33] = biological target: Gal(b1-3)GlcNAc6S
Outline: as §1

[34] = biological target: Gal(b1-3)[Fuc(a1-4)]GlcNAc
Outline: as §1

[35] = biological target: Gal(b1-3)[Fuc(a1-4)]GlcNAc(b1-2)Man
Outline: as §1

[36] = biological target: Gal(b1-3)[Fuc(a1-4)]GlcNAc(b1-2)Man(a1-3)[Gal(b1-3)[Fuc(a1-4)]GlcNAc(b1-2)Man(a1-6)]Man(b1-4)GlcNAc(b1-4)[Fuc(a1-6)]GlcNAc
Outline: as §1

[37] = biological target: Gal(b1-3)[Fuc(a1-4)]GlcNAc(b1-3)Gal(b1-3)[Fuc(a1-4)]GlcNAc
Outline: as §1

B1: AT1G80310(18) (Arabidopsis thaliana), Q0WP36 (protein)
chain: METTTTPLLPGDRSRCGWLRRRLRLKNPLSSELSGAVGDLGTFIPIVLTLTLVSNLDLSTTLIFTGFYNIATGLLFDIPMPVQPMKSIAAVAVSESPHLTPSQIAAAGASTAATLLLLGATGAMSFLYNIIPLPVVRGVQLSQGLQFAFTAIKYVRFNYDTATLKPSSSPRIWLGLDGLILALAALLFIILSTGSGNDREAEDGDLAETSSNESQSRRRRLRLLSSIPSALIVFALGLVLCFIRDPSIFKDLKFGPSKFHILRISWDDWKIGFLRAAIPQIPLSVLNSVIAVCKLSNDLFDKELSATTVSISVGVMNLIGCWFGAMPVCHGAGGLAGQYRFGARSGLSVIFLGIGKLIVGLVFGNSFVRILSQFPIGILGVLLLFAGIELAMASKDMNSKEDSFIMLVCAAVSMTGSSAALGFGCGVVLYLLLKLRTLDCSSVTLFSRSSDESQVDSEAAPRDV
glycan array binding signal (z-score) [1]: -0.24 | glycan array binding signal (z-score) [2]: -0.654 | glycan array binding signal (z-score) [3]: -1 | glycan array binding signal (z-score) [4]: -0.812 | glycan array binding signal (z-score) [5]: -0.301 | glycan array binding signal (z-score) [6]: -0.928 | glycan array binding signal (z-score) [7]: -0.448 | glycan array binding signal (z-score) [8]: -0.806 | glycan array binding signal (z-score) [9]: 0.799 | glycan array binding signal (z-score) [10]: -0.444 | glycan array binding signal (z-score) [11]: -0.754 | glycan array binding signal (z-score) [12]: 0.056 | glycan array binding signal (z-score) [13]: -0.192 | glycan array binding signal (z-score) [14]: 0.216 | glycan array binding signal (z-score) [15]: 1.13 | glycan array binding signal (z-score) [16]: -0.886 | glycan array binding signal (z-score) [17]: -0.975 | glycan array binding signal (z-score) [18]: 1.46 | glycan array binding signal (z-score) [19]: 0.144 | glycan array binding signal (z-score) [20]: 0.44 | glycan array binding signal (z-score) [21]: -0.424 | glycan array binding signal (z-score) [22]: -0.236 | glycan array binding signal (z-score) [23]: -0.701 | glycan array binding signal (z-score) [24]: -0.313 | glycan array binding signal (z-score) [25]: 0.575 | glycan array binding signal (z-score) [26]: -0.309 | glycan array binding signal (z-score) [27]: 1.17 | glycan array binding signal (z-score) [28]: 0.457 | glycan array binding signal (z-score) [29]: 0.082 | glycan array binding signal (z-score) [30]: -0.386 | glycan array binding signal (z-score) [31]: 0.559 | glycan array binding signal (z-score) [32]: 0.78 | glycan array binding signal (z-score) [33]: -0.472 | glycan array binding signal (z-score) [34]: 0.224 | glycan array binding signal (z-score) [35]: 2.96 | glycan array binding signal (z-score) [36]: -0.645 | glycan array binding signal (z-score) [37]: 1.19
